Some results were stated once for a whole list of compounds, not compound by compound.
System: Ctenocephalides felis (Cat flea)
Test: METHOD A: Screening method to test systemicity of compounds against Ctenocephalides felis (Cat flea)
Format: in vivo
Conditions: test concentration of 5 ppm or less; compound in bovine blood (artificial dog test); assessment at 24 and 48 hours after application

| Compound | control of Ctenocephalides felis |
| --- | --- |
| CN(CCS(C)(=O)=O)c1c([S+]([O-])C(F)(F)F)c(C#N)c(C#N)n1-c1c(Cl)cc(C(F)(F)F)cc1Cl (stereo not drawn) [Compound 1.6, 1-(2,6-dichloro-4-trifluoromethylphenyl)-2,3-dicyano-4-trifluoromethylsulfinyl-5-N-methyl-N-(2-methylsulfonylethyl)aminopyrrole] | at least 90% |
| CSCCN(C)c1c([S+]([O-])C(F)(F)F)c(C#N)c(C#N)n1-c1c(Cl)cc(C(F)(F)F)cc1Cl (stereo not drawn) [Compound 1.4, 1-(2,6-Dichloro-4-trifluoromethylphenyl)-2,3-dicyano-4-trifluoromethylsulfinyl-5-N-methyl-N-(2-methylthioethyl)aminopyrrole] | at least 90% |
| CN(CC[S+](C)[O-])c1c([S+]([O-])C(F)(F)F)c(C#N)c(C#N)n1-c1c(Cl)cc(C(F)(F)F)cc1Cl (stereo not drawn) [Compound 1.5, 1-(2,6-dichloro-4-trifluoromethylphenyl)-2,3-dicyano-4-trifluoromethylsulfinyl-5-N-methyl-N-(2-methylsulfinylethyl)aminopyrrole] | at least 90% |

Reference: patent US7674474B2, “Pesticidal agents on the basis of 1-aryl-aminopyrrol” (Merial Limited, priority 2004, dated 2010)
